Assay results as given in PubChem BioAssay AID504834 (National Center for Advancing Translational Sciences (NCATS), 2011).
About 22,000 (6.9%) of roughly 320,000 compounds were called active. This list was built around the results that the source calls inconclusive (neither active nor inactive); the mix of calls is not that of the screen. The call rests on the fitted dose curve; in most records, active means well fitted inhibition curve with a large enough effect; inconclusive means small, poorly fitted or top-dose-only effect, or another doubt; inactive means no such curve, though single readings can be large or run the other way. Potencies beside an inconclusive call are fits to weak or partial responses and may not hold up. Some compounds were tested as several samples or in several runs, with calls that do not always agree.

assay: Primary qHTS for delayed death inhibitors of the malarial parasite plastid, 96 hour incubation; conditions: P. falciparum luciferase reporter growth; series mostly up to 28.7 µM; activity change, negative = inhibition: at the top concentration
Procedure, shortened: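 Readout is luminescence from an integrated firefly luciferase in P. falciparum. Red cells, 2% hematocrit and 0.05% parasitemia final, were cultured with compound through two parasite generations (96 hours) at 37 C, 5% CO2.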
On the % scale 0 is the no-effect control and ±100 the full control effect; potency means the concentration at half of the fitted maximal effect.

SMILES	Potency	activity change, negative = inhibition
Cc1onc(-c2ccccc2Cl)c1C(=O)N(C)C1CCCCC1	inconclusive: 11.7 µM [inhibitor, single point]	–
O=C(c1cc(-c2ccccc2)on1)N1CCN(Cc2ccc3c(c2)OCO3)CC1	inconclusive: 18.5 µM [inhibitor, single point]	–
O=C(CN1CCN(C(=O)N2CCOCC2)CC1)Nc1cc(Cl)ccc1Cl	inconclusive: 1.47 µM [inhibitor, full curve, poor fit]	–
COc1ccc(/C=C/C(=O)OCC(=O)c2ccc(S(=O)(=O)N3CCCCC3)cc2)cc1OC	inconclusive: 2.33 µM [inhibitor, partial curve, poor fit]	–
CC1Cc2ccccc2N1CC(=O)N(C)c1c(N)n(Cc2ccccc2)c(=O)[nH]c1=O (stereo not given)	inconclusive: 4.15 µM [inhibitor, single point]	–
Cc1cc(C(=O)N/N=C2\CC(=O)CC(C)(C)C2)n[nH]1	–	inactive: 1.95%
COc1ccccc1C(CNC(=O)c1ccc(NS(=O)(=O)c2ccc(F)c(C)c2)cc1)N1CCCC1 (stereo not given)	active: 11.7 µM	–
CCOC(=O)c1c(-c2ccc(OC)cc2)csc1NC(=O)CCN1CCOCC1	active: 5.86 µM	–
CC(C)(C)c1ccc(C(=O)NNc2cc(Cl)cc(Cl)c2)cc1	–	inactive: -25.3%
O=C(O)c1ccc(S(=O)(=O)N2CCCC2)cc1	inconclusive: 10.4 µM [inhibitor, partial curve]	–
COc1ccc(-n2c(O)c(/C=N/Nc3nc(C)cc(C)n3)c3ccccc3c2=O)cc1OC	inconclusive: 18.5 µM [inhibitor, single point]	–
Cc1ccc(S(=O)(=O)c2cc3c(=O)n4ccccc4nc3n(CCCN3CCOCC3)c2=N)cc1C	inconclusive: 1.85 µM [inhibitor, partial curve, poor fit]	–
COc1cccc(NC(=O)C2CC(=O)OC23CCOC(C)(C)C3)c1 (stereo not given)	inconclusive: 8.28 µM [inhibitor, partial curve, poor fit]	–
CCn1cc(C(=O)NCCc2ccccc2)c(=O)c2cc(S(=O)(=O)N3CCCC3)ccc21	inconclusive: 1.65 µM [inhibitor, full curve, poor fit]	–
COc1ccc(NC(=O)c2nc(SC)ncc2Cl)cc1	–	inactive: 15.7%
Cc1ccc(C)c(C(=O)c2ccccc2NC(=O)c2ccccn2)c1	inconclusive: 20.8 µM [inhibitor, partial curve, poor fit]	–
NC1=NC(c2ccccc2)N=C(Nc2ccccc2)N1 (stereo not given)	active: 2.94 µM	–
CC1Cc2cc(-c3csc(NC(=O)Cc4ccccc4)n3)ccc2N1S(C)(=O)=O (stereo not given)	inconclusive: 6.57 µM [inhibitor, partial curve, poor fit]	–
Cc1occc1C(=O)N1CCC2(CCCN(Cc3ccc(F)c(F)c3)C2)C1 (stereo not given)	–	inactive: -14%
CC(C)(C)CC(C)(C)c1ccc(OCCO)cc1	inconclusive: 3.79 µM [inhibitor, partial curve]	–
COC(C[C@H](O)[C@@H](C)[C@H](O)COCc1ccccc1)OC	–	inactive: 0%
Cc1ccc(S(=O)(=O)NN2C(=O)c3ccccc3NC2c2ccccc2)cc1 (stereo not given)	inconclusive: 0.738 µM [inhibitor, partial curve, poor fit]	–
COCCn1c(=O)[nH]c(=O)c2cc(C(=O)c3cc(Cl)ccc3O)cnc21	inconclusive: 9.28 µM [inhibitor, partial curve]	–
N#Cc1cc(N)c(Nc2ccccc2)cc1C#N	inconclusive: 8.28 µM [inhibitor, partial curve, poor fit]	–

SMILES	Potency	activity change, negative = inhibition
CC(CCc1ccccc1)NCC(O)COc1ccccc1 (stereo not given)	inconclusive: 1.47 µM [inhibitor, full curve, poor fit]	–
O=[N+]([O-])c1ccc(/C=N/N=C/c2ccc([N+](=O)[O-])o2)o1	–	inactive: -4.68%
O=C(Nc1ccc(Cl)c(Cl)c1)Nc1ccccc1C(=O)O	–	inactive: 41.6%
Cc1ccc(NC(/C=C/N(C)C)=C/C(=O)C(F)(F)F)c(C)c1	inconclusive: 11.7 µM [inhibitor, partial curve, poor fit]	–
Cc1ccc(C(=O)N(C)c2ccc(OCC(=O)N3c4ccc(C)cc4C4CN(C)CCC43)cc2)cc1 (stereo not given)	inconclusive: 11.7 µM [inhibitor, single point]	–
COc1cc2ccnc(Cc3cccc(OC)c3OC)c2cc1OC	–	inactive: 45.6%
Cc1cccc(N(C(=O)CNC(=O)c2ccco2)C(C(=O)NC2CCCC2)c2cccnc2)c1 (stereo not given)	active: 4.15 µM	–
CN1CCN(NC(=O)c2cc([N+](=O)[O-])cc([N+](=O)[O-])c2)CC1	inconclusive: 4.15 µM [inhibitor, partial curve, poor fit]	–
COc1cccc(C(=O)NCC(=O)N/N=C/c2ccc3c(c2)OCO3)c1	inconclusive: 2.94 µM [inhibitor, partial curve, poor fit]	–
Cc1cc(C)c2nc(NC(=O)c3ccc(OCC4CCCO4)cc3)sc2c1 (stereo not given)	inconclusive: 13.1 µM [inhibitor, single point]	–
COc1ccc(C(=O)NC2CC(C)(C)Cc3c2cnn3-c2ccccc2C)c(OC)c1OC (stereo not given)	inconclusive: 18.5 µM [inhibitor, single point]	–
CCC(CC)c1nnc(NC(=O)c2ccco2)s1	–	inactive: 59.4%
C=CCn1c(CCc2ccc(OC(C)C)cc2)n[nH]c1=S	–	inactive: -16.8%
Cc1ccc(NC(=S)NNc2ncc(C(F)(F)F)cc2Cl)cc1	active: 10.4 µM	–
CCOC(=O)c1ccc(NC(=O)CCOc2ccc(OC)cc2)cc1	–	inactive: 42.8%
Cc1cc(Cl)n2c(nc3ccccc32)c1C#N	inconclusive: 1.04 µM [inhibitor, full curve, poor fit]	–
CCOC(=O)C1(CC2CCCCO2)CCN(C(=O)Nc2ccccc2SC)CC1 (stereo not given)	active: 11.7 µM	–
CCC(=O)Nc1ccc(Br)cn1	–	inactive: 6.52%
CCOC(=O)C1=C(COC(=O)/C=C/c2cc(OC)c(OC)c(OC)c2)NC(=O)NC1C (stereo not given)	inconclusive: 16.5 µM [inhibitor, single point]	–
Cc1oc2ccc(OCc3ccccc3Cl)cc2c1C(=O)O	inconclusive: 9.28 µM [inhibitor, partial curve, poor fit]	–
COc1ccc(/C=C(/NC(=O)c2ccccc2)C(=O)N2CCCC2)cc1OC	inconclusive: 8.28 µM [inhibitor, partial curve]	–
COCCCN1C(=O)C2C(C(=O)Nc3cc(C)cc(C)c3)C3C=CC2(O3)C1C(=O)NC1CCCCC1 (stereo not given)	inconclusive: 11.7 µM [inhibitor, single point]	–
O=C(c1ccc(Br)o1)N1CCN(CCc2ccncc2)CC1	–	inactive: 380%

Exported field by field: three of the compounds above
O=C(Nc1ccc(Cl)c(Cl)c1)Nc1ccccc1C(=O)O
  activity change, negative = inhibition: inactive: 41.6%
Cc1ccc(NC(/C=C/N(C)C)=C/C(=O)C(F)(F)F)c(C)c1
  Potency: inconclusive: 11.7 µM [inhibitor, partial curve, poor fit]
Cc1ccc(C(=O)N(C)c2ccc(OCC(=O)N3c4ccc(C)cc4C4CN(C)CCC43)cc2)cc1 (stereo not given)
  Potency: inconclusive: 11.7 µM [inhibitor, single point]

Following part

SMILES	Potency	activity change, negative = inhibition
CCOc1ccc(-c2nnc(NC(=O)c3ccc(OCC(C)C)c(OC)c3)o2)cc1	inconclusive: 16.5 µM [inhibitor, partial curve, poor fit]	–
CCOC(=O)C1=C(c2ccccc2)Nc2ncnn2C1c1ccc(C(=O)O)cc1 (stereo not given)	–	inactive: 32.8%
Cc1ccccc1NC(=O)C1Cc2ccccc2CN1C(=O)OCc1ccccc1 (stereo not given)	active: 13.1 µM	–
COc1ccc(-c2cnc(N)nc2-c2ccc(OC)cc2)cc1	–	inactive: -18.8%
O=Nc1c(O)n(Cc2ccc(Cl)c(Cl)c2)c2ccccc12	active: 9.28 µM	–
COc1ccc(CCNC(=O)c2ccccc2OCc2c(C)noc2C)cc1	inconclusive: 13.1 µM [inhibitor, single point]	–
COc1ccc(CCNC(=O)c2c(C)nn(-c3ccccc3)c2Cl)cc1	inconclusive: 20.8 µM [inhibitor, partial curve, poor fit]	–
COc1ccccc1N/C(N)=N/c1nc(CSc2nc3ccccc3s2)cc(=O)[nH]1	inconclusive: 11.7 µM [inhibitor, single point]	–
COc1ccc(N/C=C(\C=C\C#N)S(=O)(=O)c2ccccc2)cc1	–	inactive: -7.87%
CCOc1ccc(CNC(=O)C2Cc3cc(S(=O)(=O)N4CCCC4)ccc3N2C(C)=O)cc1 (stereo not given)	inconclusive: 13.1 µM [inhibitor, single point]	–
CCOC(=O)C1CCN(CC(=O)c2ccc(O)c(C)c2O)CC1	inconclusive: 0.657 µM [inhibitor, full curve, poor fit]	–
COC(=O)c1cnn2c(C(F)(F)F)cc(-c3ccco3)nc12	inconclusive: 18.5 µM [inhibitor, single point]	–
Cc1nc2c(Cl)cccc2c2c1CC(CBr)O2 (stereo not given)	inconclusive: 13.1 µM [inhibitor, partial curve]	–
Cc1cccc(Nc2nnc(SCC(=O)Nc3cccnc3Cl)s2)c1	inconclusive: 18.5 µM [inhibitor, single point]	–
CN1/C(=C\C=[N+](C)c2ccccc2)C(C)(C)c2ccccc21	active: 2.08 µM	–
Cc1ccc(-c2cc3nc(-c4ccccc4)cc(N4CCC5(CC4)OCCO5)n3n2)cc1	active: 0.294 µM	–
Cc1sc(NC(=S)NC(=O)c2ccco2)c(C(N)=O)c1C	inconclusive: 0.415 µM [inhibitor, full curve]	–
COc1ccc(Cc2nnc(N/N=C/c3ccccc3O)[nH]c2=O)cc1OC	inconclusive: 9.28 µM [inhibitor, partial curve, poor fit]	–
Cc1c(O)ccc(C(=O)COc2ccccc2F)c1O	inconclusive: 3.29 µM [inhibitor, single point]	–
COc1ccc(C2Nc3ccccc3C(=O)N2Cc2ccccc2)cc1COc1ccccn1 (stereo not given)	inconclusive: 7.38 µM [inhibitor, partial curve, poor fit]	–
COC(=O)c1ccc(-c2ncc(-c3cccc4ccccc34)o2)cc1	–	inactive: 73.5%
Cc1cc(C)nc(CCNC(=O)CC2C(=O)NCCN2Cc2ccc(F)cc2Cl)n1 (stereo not given)	inconclusive: 10.4 µM [inhibitor, partial curve, poor fit]	–
